Results: PubChem BioAssay AID1508600 (Functional Genomics Laboratory (NCATS/FGL), 2020)
Out of some 53,000 sequences screened, about 3,700 (7%) were called active.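 Rule for the calls: active = gene knockdowns whose robust z-score for IL-1 alpha signal is at least 2 or at most -2, so actives lie on both sides; inactive = the rest.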 Some of the results follow.

assay: Components of the Cytosolic LPS Sensing Pathway: Gene Identification via Genome-wide siRNA Screen; conditions: RAW264.7 macrophages, IL-1a HTRF, actives lie on both sides, screened at 100 nM (by protocol), cells primed 5 h with Pam3CSK4 first;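 note: robust z of the log signal after scaling to non-targeting control siRNA wells of the plate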
How it was run: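 Cells (RAW264.7, 1×10^4 per well) were transfected with siRNA at 100 nM and cultured 48h at 37 degrees C. Pam3CSK4 was added for 5 hours; LipidA transfection followed for 24 hour. IL-1a was then measured by HTRF.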

Row | Sequence | z-score
1 | GGUUCUCGUGUGGCACACUTT against B3gat2 | inactive: 0.126
2 | CCACACUCUUGGAAUUACGTT against Gsg1 | inactive: -1.22
3 | GGUCAUCAGUGAGCUGAAUTT against Rplp2 | inactive: 0.125
4 | GGCUGAGAAUUACUUAAACTT against Ift43 | inactive: -0.796
5 | GGAAUGCUAUGUGUAUAGUTT against Slc38a9 | inactive: -0.423
6 | AAAACAACCUAUUCAAGGATT against Klk1b3 | inactive: 1.04
7 | GGAAAUUACGCAUAUCCAUTT against Cntn1 | inactive: 0.843
8 | GCGUGCUUCUGUUUACCAUTT against Hnrnpl | inactive: -0.711
9 | CCUUCUAAUUAUCACCAAATT against Arhgap18 | inactive: -0.102
10 | GCAUGGCCAAUCUACCCUUTT against Bcl9l | inactive: -0.463
11 | GGAAAAAAUCACAUUGACUTT against H2ac6 | inactive: -0.835
12 | GGCAAUUCUGGAGGCUCUUTT against Ubqln1 | inactive: -0.746
13 | GGUGAAAUCCGUUACUUUGTT against Bloc1s5 | inactive: -0.557
14 | CCAUCUACAAGUGUCCUUATT against Zfp276 | inactive: -0.632
15 | GCAGAAACCUCAUCACUAATT against Bambi | inactive: -1.32
16 | GGUGAAUGAAACUUUCUGUTT against Adamts13 | inactive: 0.264
17 | GGAGAAACCAGCUAAAGGATT against Car9 | inactive: -0.235
18 | CCUGAGCUAGAAUCUCAGATT against Zmat2 | inactive: 0.715
19 | GAGAUGUCGAUGCAAAUUCTT against Fxyd1 | inactive: 0.389
20 | GGAUUUUCACUUUUACUCUTT against Fam199x | inactive: -0.715
21 | GGACAAGAACUUAGUGAUGTT against Emc9 | inactive: 0.522
22 | GGACAUCAUUACAAAGAUGTT against Rgs6 | inactive: -0.608
23 | GGCAUGUUUCUACAUCUUATT against Rgs12 | inactive: 0.455

Retrieved one by one from the entries so far (4):
Row | Sequence | z-score
4 | GGCUGAGAAUUACUUAAACTT against Ift43 | inactive: -0.796
18 | CCUGAGCUAGAAUCUCAGATT against Zmat2 | inactive: 0.715
7 | GGAAAUUACGCAUAUCCAUTT against Cntn1 | inactive: 0.843
15 | GCAGAAACCUCAUCACUAATT against Bambi | inactive: -1.32

Continued:

Row | Sequence | z-score
24 | GCAAUGGUUCUCUUCAACCTT against Ppp3cb | inactive: -0.679
25 | CGUGCACUGGAGAUUCCAUTT against Slc41a1 | inactive: -0.329
26 | GGAAGCGUGGAAGUCUACGTT against Kcnj16 | inactive: 0.277
27 | GCCCUAUCCACCCAUUGAGTT against Hs3st1 | inactive: -0.319
28 | GGUGUUCUACUGUGCAUUATT against 9330132A10Rik | inactive: 0.578
29 | GGUAUGGUAUUGUGUAUUUTT against Cyp2c38 | inactive: -1.6
30 | CCCACUAAGAAACAAUCUATT against Gp1ba | inactive: 0.189
31 | GGAAAGAAAAAAGAUGGUCTT against Riok1 | inactive: -0.674
32 | GGAUUCUUUCCAACAGAUUTT against Wwp2 | inactive: -0.00908
33 | GGAAGAAUUUGACAACCGCTT against Mrps18c | inactive: 0.583
34 | GGUAUAAAGCAACUUACUATT against Rab7b | inactive: -0.575
35 | GCAGAUCAGUUGGUACAAGTT against Acss3 | inactive: 0.0616
36 | GCGUAAGCAGCAAGAUGGATT against Ash2l | inactive: 1.21
37 | GCCUUUUUACAGCUCAGGUTT against Zfp975 | inactive: -0.623
38 | GGAGCACUUUGUAUGGAACTT against Ube2q2 | active: 2.97
39 | GGUGGAAUCAAUAUUGUAUTT against Tmem64 | inactive: -1.2
40 | GGAAAAGAAAGGAACACUGTT against Defb13 | inactive: 0.51
41 | GGACUUCUUUUGAAUCGGATT against Pex14 | inactive: 0.464
42 | GCUAAUGCACCAAUGUGAGTT against Pafah1b3 | inactive: -1.53
43 | GGUGUUAGGAAGUCACAUUTT against Tas2r109 | inactive: -1.28
44 | GGUUAGUCUGACCUGCCUGTT against Ighg3 | inactive: -0.288
45 | CCCUUAAUAAAGAAGGGACTT against Atg9a | inactive: 0.961
46 | GGAAAGCAAUACAAUCAAATT against Ndufaf4 | inactive: 0.989

Row | Sequence | z-score
47 | CCACAGAUUUGCCUGAAAATT against Cabs1 | inactive: 1.05
48 | CCAAUGUUUGAAUUCUUCGTT against Nudt1 | inactive: 0.729
49 | GGACCUUUCCGAGUCCAUUTT against Tmed10 | inactive: 1.07
50 | GGAACAGCAAAAAUAAGACTT against Vmn1r225 | inactive: 0.443
51 | GCUAUCUCGGUGUCAACUUTT against Aqp7 | inactive: -1.26
52 | CGCGGCUUCUCAAAAAGCATT against Nkx6-2 | inactive: -1.84
53 | GGAAAUGGCUCAUUUUAUCTT against Mmgt1 | inactive: 0.689
54 | GGUGGAUUCUCCACUGUUUTT against Bmp2k | inactive: 0.523
55 | GCCAGAACCUGACUUAUAUTT against Mia2 | inactive: -0.0793
56 | CCCUAUGGUUUAUAUGAAUTT against Ptk2b | inactive: -1.62
57 | GGUAACCAUCAAAUAUUCCTT against Pan2 | inactive: 1.59
58 | GAAUCUUAGGAAGAUGACATT against Krtap9-3 | inactive: -1.18
59 | CCAAGAGCCUUUCUAACAATT against Pnrc2 | inactive: -1.51
60 | GGGCAUUCAGCAGUUACAGTT against Lrriq4 | inactive: 0.521
61 | GCUCCUUUAGUCCUCACCATT against Mrpl10 | active: -2.15
62 | GGAAUGGAGUCCUAGUCCATT against Spdef | inactive: -0.566
63 | CCUGAUGGCUUUCAUCUUATT against Olfr815 | inactive: -0.432
64 | GGAAUUCCAAUGUUACCAUTT against Meltf | active: 3.35
65 | CCUUCGUAAUGACUGAGGATT against Iba57 | inactive: 0.205
66 | GGGAGAACACAUCUACUGATT against Slamf6 | inactive: -1.17
67 | GGAGCUAGCAAGUAAAACUTT against Lbx2 | inactive: -0.996
68 | CCUUCUUGAAAACUCCAAGTT against Lum | inactive: -0.862
